From article PMC6294257, “Osteocalcin triggers Fas/FasL-mediated necroptosis in adipocytes via activation of p300” (Cell Death & Disease, 2018)
Results are given in words; binding and its absence hold for the method and conditions named.

Biological target: mixed-lineage kinase domain-like protein (MLKL) (mouse (endogenous in 3T3-L1)) (UniProt Q9D2Y4)
Assay: reducing SDS-PAGE and immunoblot; 3T3-L1 adipocytes incubated with GluOC for 24 h; cell lysates prepared in the presence of 2.5% 2-mercaptoethanol; immunoblot with antibodies to MLKL

B1: mixed-lineage kinase domain-like protein (MLKL) (natural protein, mouse (endogenous in 3T3-L1), UniProt Q9D2Y4 1-472, looked up)
chain: MDKLGQIIKLGQLIYEQCEKMKYCRKQCQRLGNRVHGLLQPLQRLQAQGKKNLPDDITAALGRFDEVLKEANQQIEKFSKKSHIWKFVSVGNDKILFHEVNEKLRDVWEELLLLLQVYHWNTVSDVSQPASWQQEDRQDAEEDGNENMKVILMQLQISVEEINKTLKQCSLKPTQEIPQDLQIKEIPKEHLGPPWTKLKTSKMSTIYRGEYHRSPVTIKVFNNPQAESVGIVRFTFNDEIKTMKKFDSPNILRIFGICIDQTVKPPEFSIVMEYCELGTLRELLDREKDLTMSVRSLLVLRAARGLYRLHHSETLHRNISSSSFLVAGGYQVKLAGFELSKTQNSISRTAKSTKAERSSSTIYVSPERLKNPFCLYDIKAEIYSFGIVLWEIATGKIPFEGCDSKKIRELVAEDKKQEPVGQDCPELLREIINECRAHEPSQRPSVDGRSLSGRERILERLSAVEESTDKKV
notes: mixed-lineage kinase domain-like protein (MLKL), endogenous in 3T3-L1 adipocytes treated with GluOC; High-dose GluOC induces phosphorylation of MLKL, printed as Thr357/Ser358; these numbers may be those of human MLKL although the cells are mouse; source: endogenous, 3T3-L1 adipocyte lysate
For B1, the binding was “no binding (condition: with 2.5% 2-mercaptoethanol)”.
